In patent publication US10816541B2, “Method for predicting side effect of whitening ingredient” (AMOREPACIFIC CORPORATION, priority 2015, dated 2020):
Some entries share one result that the patent states for a list of compounds. At least one compound was matched to its structure with a doubt left. Some ranges recur; such a range may be that of the whole group of compounds.

The compounds below were run on HEMn-MP cells (assay: Inhibition of melanin production in HEMn-MP cells and correlation factor with cytotoxic concentration (Test Example 2)). Conditions: day 7, 50% cytotoxic concentration divided by EC50 of melanin production.
Format: cell-based, human
Description: The inhibitory effect of melanin production of the whitening ingredients for HEMn-MP cells was investigated. After treating the cells with the samples at concentrations shown in Table 4 and culturing for 7 days, the amount of melanin was measured as compared to a control group (0.5% DMSO) (FIG. 4). Also, EC50 (50% effective inhibitory concentration of melanin production) was calculated for the whitening ingredients (Table 5). Then, CC20 or CC50 was divided by EC50 to investigate the correlation factor (difference) between the cytotoxicity and the effective inhibitory concentration of melanin production (Table 6).
Table 6 compares the correlation factor between the cytotoxic concentration (CC50) and the inhibitory concentration of melanin synthesis (EC50) of the whitening ingredients on day 7. CC20/EC50 is the value obtained by dividing the 20% cytotoxic concentration by the 50% effective inhibitory concentration of melanin production and represents the correlation factor of the 20% cytotoxic concentration and the effective concentration. CC50/EC50 is the value obtained by dividing the 50% cytotoxic concentration by the 50% effective inhibitory concentration of melanin production and represents the correlation factor of the 50% cytotoxic concentration and the effective concentration.

SMILES | CC50/EC50
Oc1ccc(OCc2ccccc2)cc1 [MB, 4-benzyloxy-phenol] | 1.4-2.8 Fold
C[C@@H](O)CCc1ccc(O)cc1 [RD, rhododenol] | 1.4-2.8 Fold
CC(=O)CCc1ccc(O)cc1 [RK, raspberry ketone] | 1.4-2.8 Fold
